Results deposited as PubChem BioAssay AID1259254 (NCATS, 2017)

Screen: 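Gene knock-downs that lead to re-replication, shown by excess G2 DNA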 (primary screen)
System: human HCT116 colorectal cancer cells
Reagents: single siRNA against human genes
Duration: 3 days
Measurement: 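Imaged Hoechst DNA stain sorts each cell into a cycle phase by DNA amount; per plate, G2 fraction set to 0% for non-targeting and 100% for GMNN siRNA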
Direction: G2 robust z-score and G2 cells, % of GMNN control: higher = more G2 cells, more excess DNA replication
Call rule: 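Active siRNAs have a G2 robust z of 5 or more median absolute deviations over the median, which in these data means about 38% or higher of GMNN control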
Shown is a random part of about 59,000 reagents. About 1,550 of all reagents (2.6%) were called active. 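G2 share is only a proxy for re-replication; each gene was hit by three separate siRNAs, and active genes were retested.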 Not all columns of the deposit are shown. No sequences are given here. The record does not give: the amount of reagent.

target gene	PubChem SID	G2 robust z-score	G2 cells, % of GMNN control	activity call
C14orf93	SID160747189	1.11	10.8	inactive
C14orf93	SID160747190	0.276	4.91	inactive
C14orf93	SID160747191	0.195	4.34	inactive
CDRT15	SID160724855	0.527	6.68	inactive
CDRT15	SID160724856	1.28	12	inactive
CDRT15	SID160724857	-0.465	-0.308	inactive
SGSH	SID160716655	-1.37	-6.68	inactive
SGSH	SID160716657	-0.974	-3.89	inactive
SGSH	SID160731729	-1.02	-4.19	inactive
SLC25A48	SID160759319	0.402	5.79	inactive
SLC25A48	SID160759321	-0.386	0.25	inactive
SLC25A48	SID160759322	-0.383	0.274	inactive
KLF12	SID160730349	-0.803	-2.68	inactive
KLF12	SID160730350	4.33	33.4	inactive
KLF12	SID160730352	-0.276	1.02	inactive
HMCES	SID160745349	-0.774	-2.48	inactive
HMCES	SID160745350	-0.641	-1.54	inactive
HMCES	SID160745351	-0.749	-2.3	inactive
PLEKHA1	SID160746989	0.192	4.32	inactive
PLEKHA1	SID160746990	1.35	12.5	inactive
PLEKHA1	SID160746991	1.04	10.3	inactive
HNRNPA3	SID160761561	0.224	4.54	inactive
HNRNPA3	SID160761562	-0.743	-2.26	inactive
HNRNPA3	SID160761563	-1.31	-6.27	inactive
FAXC	SID160752412	0.53	6.7	inactive
FAXC	SID160752413	-0.276	1.02	inactive
FAXC	SID160752414	-0.27	1.06	inactive
YIPF6	SID160763856	-0.601	-1.26	inactive
YIPF6	SID160763857	3.2	25.5	inactive
YIPF6	SID160763858	0.242	4.67	inactive
NAV1	SID160753431	-0.494	-0.512	inactive
NAV1	SID160753433	0.68	7.75	inactive
NAV1	SID160753434	-0.262	1.12	inactive
ZNF354C	SID160739535	-0.316	0.742	inactive
ZNF354C	SID160739536	-1.05	-4.43	inactive
ZNF354C	SID160739538	0.234	4.62	inactive
RHOD	SID160739436	-0.043	2.67	inactive
RHOD	SID160739438	-1.35	-6.51	inactive
RHOD	SID160739439	0.743	8.19	inactive
KLHL2P1	SID160734502	0.797	8.58	inactive
KLHL2P1	SID160772579	1.95	16.7	inactive
KLHL2P1	SID160772580	0.24	4.66	inactive
RNF157	SID160755021	-0.264	1.11	inactive
RNF157	SID160755022	1.38	12.7	inactive
RNF157	SID160755023	-0.177	1.72	inactive
NACAD	SID160735561	-1.31	-6.25	inactive
NACAD	SID160735563	0.924	9.47	inactive
NACAD	SID160735564	0.311	5.16	inactive
NMD3P1	SID160725425	2.67	21.7	inactive
NMD3P1	SID160725426	1.62	14.4	inactive
NMD3P1	SID160767966	-0.684	-1.84	inactive
UQCR11	SID160717099	-0.158	1.86	inactive
UQCR11	SID160717202	-0.557	-0.953	inactive
UQCR11	SID160717299	1.46	13.3	inactive
SLC7A6	SID160721371	-0.218	1.43	inactive
SLC7A6	SID160721372	0.77	8.38	inactive
SLC7A6	SID160721373	-0.525	-0.725	inactive
IKZF2	SID160731345	-0.322	0.699	inactive
IKZF2	SID160731353	-0.533	-0.781	inactive
IKZF2	SID160731364	-0.804	-2.69	inactive
LOC728145 (retired record)	SID160771522	0.115	3.77	inactive
LOC728145 (retired record)	SID160771524	1.04	10.3	inactive
LOC728145 (retired record)	SID160771525	-0.699	-1.95	inactive
XKR8	SID160742974	3.14	25.1	inactive
XKR8	SID160742975	-0.981	-3.93	inactive
XKR8	SID160742976	-0.0862	2.36	inactive
MADCAM1	SID160719684	1.34	12.4	inactive
MADCAM1	SID160719685	-0.587	-1.16	inactive
MADCAM1	SID160735011	3.14	25.1	inactive

Records above whose gene name begins with K or k (6):
target gene	PubChem SID	G2 robust z-score	G2 cells, % of GMNN control	activity call
KLF12	SID160730349	-0.803	-2.68	inactive
KLF12	SID160730350	4.33	33.4	inactive
KLF12	SID160730352	-0.276	1.02	inactive
KLHL2P1	SID160734502	0.797	8.58	inactive
KLHL2P1	SID160772579	1.95	16.7	inactive
KLHL2P1	SID160772580	0.24	4.66	inactive
